# In the supplement of paper PMC8728848:
# Some of the results follow.
# B1: Vd7LysM (Verticillium dahliae) (protein)
# chain: RRGPEPKYPPAAGTSSYCSYWVDYEGDKSCSRVLEDNVVVLKDFARWNPTVGADCSGIKAGNSYCVEAFGEPEPIEVTTTTRAATTTTQPTATTTTFANGIATPQPTQSGMVTNCNKFHWIAEGVSCSQVISFQKITLADFVKWNPSVKSDCSGMWAGVNVCVGVVGSSTDTAKPTTTAPSNGVVTPQPTQPSMVTNCNKFHWIAKGVTCQQVISYQKISLADFVKWNPSVLSDCSGMWAEVQVCVGVIGSTPTTLATTTTTAGNGVSTPLPTQPGMVTNCAKFHWVAKGVTCNQIYSFQKITLEQFVSYNPTVKSDCSGMQAEVQVCVGLIAGTTPTTTRPPTTTAPGNGVSTPQPTQPGMVTNCAKFHWVAKGVTCNQIYSFQKITLEQFVSFNPTVKSDCTGMQAEVNVCVGLIGGNPTPTQTGNGIATPTPIQPGMVSNCKKFHWIAQGVTCQQVISFQKITLADFVKWNTGVGSDCRTMWAETNVCVGV
# Key:
# Experiment in all cases: glycan array binding signal (z-score within array); higher = stronger binding
# Settings in all cases: glycan notation: IUPAC condensed, linker removed
# [1] = molecular target: Gal(b1-4)GlcNAc(b1-2)[Gal(b1-4)GlcNAc(b1-6)]Man(a1-6)[GlcNAc(b1-4)][Gal(b1-4)GlcNAc(b1-2)Man(a1-3)]Man(b1-4)GlcNAc(b1-4)GlcNAc
# Method in brief: (§1)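 Glycan array data came from 3228 arrays in the Consortium for Functional Glycomics database, and only arrays with an available protein sequence were kept. Glycan names were put into IUPAC-condensed notation, and columns mapping to the same glycan were averaged. The binding signal is a within-array Z-score, averaged across arrays of one protein sequence run at different concentrations or buffers and across linkers. A negative Z-score can be read as non-binding.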
# [2] = molecular target: Gal(b1-4)GlcNAc(b1-2)[Gal(b1-4)GlcNAc(b1-6)]Man(a1-6)[GlcNAc(b1-4)][Gal(b1-4)GlcNAc(b1-2)[Gal(b1-4)GlcNAc(b1-4)]Man(a1-3)]Man(b1-4)GlcNAc(b1-4)[Fuc(a1-6)]GlcNAc
# Method in brief: as §1
# [3] = molecular target: Gal(b1-4)GlcNAc(b1-3)Gal(b1-3)GalNAc
# Method in brief: as §1
# [4] = molecular target: Gal(b1-4)GlcNAc(b1-3)Gal(b1-3)GlcNAc
# Method in brief: as §1
# [5] = molecular target: Gal(b1-4)GlcNAc(b1-3)Gal(b1-4)Glc
# Method in brief: as §1
# [6] = molecular target: Gal(b1-4)GlcNAc(b1-3)Gal(b1-4)GlcNAc
# Method in brief: as §1
# [7] = molecular target: Gal(b1-4)GlcNAc(b1-3)Gal(b1-4)GlcNAc(b1-2)Man(a1-3)[Gal(b1-4)GlcNAc(b1-3)Gal(b1-4)GlcNAc(b1-2)Man(a1-6)]Man(b1-4)GlcNAc(b1-4)GlcNAc
# Method in brief: as §1
# [8] = molecular target: Gal(b1-4)GlcNAc(b1-3)Gal(b1-4)GlcNAc(b1-2)Man(a1-3)[Gal(b1-4)GlcNAc(b1-3)Gal(b1-4)GlcNAc(b1-2)Man(a1-6)]Man(b1-4)GlcNAc(b1-4)[Fuc(a1-6)]GlcNAc
# Method in brief: as §1
# [9] = molecular target: Gal(b1-4)GlcNAc(b1-3)Gal(b1-4)GlcNAc(b1-2)[Gal(b1-4)GlcNAc(b1-3)Gal(b1-4)GlcNAc(b1-6)]Man(a1-6)[Gal(b1-4)GlcNAc(b1-3)Gal(b1-4)GlcNAc(b1-2)Man(a1-3)]Man(b1-4)GlcNAc(b1-4)GlcNAc
# Method in brief: as §1
# [10] = molecular target: Gal(b1-4)GlcNAc(b1-3)Gal(b1-4)GlcNAc(b1-2)[Gal(b1-4)GlcNAc(b1-3)Gal(b1-4)GlcNAc(b1-6)]Man(a1-6)[Gal(b1-4)GlcNAc(b1-3)Gal(b1-4)GlcNAc(b1-2)Man(a1-3)]Man(b1-4)GlcNAc(b1-4)[Fuc(a1-6)]GlcNAc
# Method in brief: as §1
# [11] = molecular target: Gal(b1-4)GlcNAc(b1-3)Gal(b1-4)GlcNAc(b1-3)Gal(b1-4)GlcNAc
# Method in brief: as §1
# [12] = molecular target: Gal(b1-4)GlcNAc(b1-3)Gal(b1-4)GlcNAc(b1-3)Gal(b1-4)GlcNAc(b1-2)Man(a1-3)[Gal(b1-4)GlcNAc(b1-3)Gal(b1-4)GlcNAc(b1-3)Gal(b1-4)GlcNAc(b1-2)Man(a1-6)]Man(b1-4)GlcNAc(b1-4)GlcNAc
# Method in brief: as §1
# [13] = molecular target: Gal(b1-4)GlcNAc(b1-3)Gal(b1-4)GlcNAc(b1-3)Gal(b1-4)GlcNAc(b1-2)Man(a1-3)[Gal(b1-4)GlcNAc(b1-3)Gal(b1-4)GlcNAc(b1-3)Gal(b1-4)GlcNAc(b1-2)Man(a1-6)]Man(b1-4)GlcNAc(b1-4)[Fuc(a1-6)]GlcNAc
# Method in brief: as §1
# [14] = molecular target: Gal(b1-4)GlcNAc(b1-3)Gal(b1-4)GlcNAc(b1-3)Gal(b1-4)GlcNAc(b1-2)[Gal(b1-4)GlcNAc(b1-3)Gal(b1-4)GlcNAc(b1-3)Gal(b1-4)GlcNAc(b1-6)]Man(a1-6)[Gal(b1-4)GlcNAc(b1-3)Gal(b1-4)GlcNAc(b1-3)Gal(b1-4)GlcNAc(b1-2)Man(a1-3)]Man(b1-4)GlcNAc(b1-4)[Fuc(a1-6)]GlcNAc
# Method in brief: as §1
# [15] = molecular target: Gal(b1-4)GlcNAc(b1-3)Gal(b1-4)GlcNAc(b1-3)Gal(b1-4)GlcNAc(b1-3)Gal(b1-4)GlcNAc(b1-2)Man(a1-3)[Gal(b1-4)GlcNAc(b1-3)Gal(b1-4)GlcNAc(b1-3)Gal(b1-4)GlcNAc(b1-3)Gal(b1-4)GlcNAc(b1-2)Man(a1-6)]Man(b1-4)GlcNAc(b1-4)GlcNAc
# Method in brief: as §1
# [16] = molecular target: Gal(b1-4)GlcNAc(b1-3)Gal(b1-4)GlcNAc(b1-3)Gal(b1-4)GlcNAc(b1-3)Gal(b1-4)GlcNAc(b1-2)Man(a1-3)[Gal(b1-4)GlcNAc(b1-3)Gal(b1-4)GlcNAc(b1-3)Gal(b1-4)GlcNAc(b1-3)Gal(b1-4)GlcNAc(b1-2)Man(a1-6)]Man(b1-4)GlcNAc(b1-4)[Fuc(a1-6)]GlcNAc
# Method in brief: as §1
# [17] = molecular target: Gal(b1-4)GlcNAc(b1-3)Gal(b1-4)GlcNAc(b1-3)Gal(b1-4)GlcNAc(b1-3)Gal(b1-4)GlcNAc(b1-2)[Gal(b1-4)GlcNAc(b1-3)Gal(b1-4)GlcNAc(b1-3)Gal(b1-4)GlcNAc(b1-3)Gal(b1-4)GlcNAc(b1-6)]Man(a1-6)[Gal(b1-4)GlcNAc(b1-3)Gal(b1-4)GlcNAc(b1-3)Gal(b1-4)GlcNAc(b1-3)Gal(b1-4)GlcNAc(b1-2)Man(a1-3)]Man(b1-4)GlcNAc(b1-4)[Fuc(a1-6)]GlcNAc
# Method in brief: as §1
# [18] = molecular target: Gal(b1-4)GlcNAc(b1-3)Gal(b1-4)GlcNAc(b1-3)Gal(b1-4)GlcNAc(b1-3)Gal(b1-4)GlcNAc(b1-3)Gal(b1-4)GlcNAc(b1-2)Man(a1-3)[Gal(b1-4)GlcNAc(b1-3)Gal(b1-4)GlcNAc(b1-3)Gal(b1-4)GlcNAc(b1-3)Gal(b1-4)GlcNAc(b1-3)Gal(b1-4)GlcNAc(b1-2)Man(a1-6)]Man(b1-4)GlcNAc(b1-4)GlcNAc
# Method in brief: as §1
# [19] = molecular target: Gal(b1-4)GlcNAc(b1-3)Gal(b1-4)GlcNAc(b1-3)Gal(b1-4)GlcNAc(b1-3)Gal(b1-4)GlcNAc(b1-3)Gal(b1-4)GlcNAc(b1-2)Man(a1-3)[Gal(b1-4)GlcNAc(b1-3)Gal(b1-4)GlcNAc(b1-3)Gal(b1-4)GlcNAc(b1-3)Gal(b1-4)GlcNAc(b1-3)Gal(b1-4)GlcNAc(b1-2)Man(a1-6)]Man(b1-4)GlcNAc(b1-4)[Fuc(a1-6)]GlcNAc
# Method in brief: as §1
# [20] = molecular target: Gal(b1-4)GlcNAc(b1-3)Gal(b1-4)GlcNAc(b1-3)Gal(b1-4)GlcNAc(b1-3)Gal(b1-4)GlcNAc(b1-3)Gal(b1-4)GlcNAc(b1-2)[Gal(b1-4)GlcNAc(b1-3)Gal(b1-4)GlcNAc(b1-3)Gal(b1-4)GlcNAc(b1-3)Gal(b1-4)GlcNAc(b1-3)Gal(b1-4)GlcNAc(b1-6)]Man(a1-6)[Gal(b1-4)GlcNAc(b1-3)Gal(b1-4)GlcNAc(b1-3)Gal(b1-4)GlcNAc(b1-3)Gal(b1-4)GlcNAc(b1-3)Gal(b1-4)GlcNAc(b1-2)Man(a1-3)]Man(b1-4)GlcNAc(b1-4)[Fuc(a1-6)]GlcNAc
# Method in brief: as §1
# [21] = molecular target: Gal(b1-4)GlcNAc(b1-3)Gal(b1-4)GlcNAc(b1-3)Gal(b1-4)GlcNAc(b1-3)Gal(b1-4)GlcNAc(b1-3)Gal(b1-4)GlcNAc(b1-3)Gal(b1-4)GlcNAc(b1-2)Man(a1-3)[Gal(b1-4)GlcNAc(b1-3)Gal(b1-4)GlcNAc(b1-3)Gal(b1-4)GlcNAc(b1-3)Gal(b1-4)GlcNAc(b1-3)Gal(b1-4)GlcNAc(b1-3)Gal(b1-4)GlcNAc(b1-2)Man(a1-6)]Man(b1-4)GlcNAc(b1-4)GlcNAc
# Method in brief: as §1
# [22] = molecular target: Gal(b1-4)GlcNAc(b1-3)Gal(b1-4)GlcNAc(b1-3)GalNAc
# Method in brief: as §1
# [23] = molecular target: Gal(b1-4)GlcNAc(b1-3)Gal(b1-4)GlcNAc(b1-3)[Gal(b1-4)GlcNAc(b1-3)Gal(b1-4)GlcNAc(b1-6)]GalNAc
# Method in brief: as §1
binder,measurement,setting,value
B1,glycan array binding signal (z-score),[1],0.042
same,glycan array binding signal (z-score),[2],1.59
same,glycan array binding signal (z-score),[3],-0.133
same,glycan array binding signal (z-score),[4],-0.642
same,glycan array binding signal (z-score),[5],-0.908
same,glycan array binding signal (z-score),[6],-0.99
same,glycan array binding signal (z-score),[7],-0.092
same,glycan array binding signal (z-score),[8],-0.239
same,glycan array binding signal (z-score),[9],-0.382
same,glycan array binding signal (z-score),[10],2.56
same,glycan array binding signal (z-score),[11],-1.07
same,glycan array binding signal (z-score),[12],1.19
same,glycan array binding signal (z-score),[13],0.652
same,glycan array binding signal (z-score),[14],1.49
same,glycan array binding signal (z-score),[15],0.781
same,glycan array binding signal (z-score),[16],1.47
same,glycan array binding signal (z-score),[17],1.72
same,glycan array binding signal (z-score),[18],0.932
same,glycan array binding signal (z-score),[19],-0.061
same,glycan array binding signal (z-score),[20],4.04
same,glycan array binding signal (z-score),[21],1.02
same,glycan array binding signal (z-score),[22],-0.501
same,glycan array binding signal (z-score),[23],0.928

# Taken from the entries so far (seven entries):
binder,measurement,setting,value
B1,glycan array binding signal (z-score),[4],-0.642
same,glycan array binding signal (z-score),[5],-0.908
same,glycan array binding signal (z-score),[6],-0.99
same,glycan array binding signal (z-score),[7],-0.092
same,glycan array binding signal (z-score),[8],-0.239
same,glycan array binding signal (z-score),[9],-0.382
same,glycan array binding signal (z-score),[10],2.56
